{"source": "patent US20110112132A1", "about": "“MEANS FOR THE TREATMENT OF ACUTE AND CHRONIC DISORDERS OF CEREBRAL CIRCULATION, INCLUDING INSULT, BASED ON HYDROGENATED PYRIDO (4,3-B) INDOLES (VARIANTS), PHARMACOLOGICAL MEANS BASED THEREON AND METHOD FOR THE USE THEREOF” (Medivation Neurology, Inc., priority 2006, published 2011)", "test_system": "rats with hemorrhagic insult", "assay": "Intracerebral post-traumatic hematoma (hemorrhagic insult) model: neurological deficit, McGraw Stroke index", "type": "in vivo, rat", "conditions": "0.1 mg/kg i.p.; first day of observation", "method": "The study was performed in accordance with the “Methodological instructions for the experimental study of preparations for the treatment of cerebral circulation and migraine,” in “Handbook on the experimental (preclinical) study of new pharmacological substances,” Meditsina, Moscow, 2005, pp. 332-338, as modified by A. N. Makarenko et al. (“Method for modeling local hemorrhage in various brain structures in experimental animals,” Zh. vyssh. nervn. deyat. (2002) 52(6):765-768).\nThe experiments were performed on cross-bred male white rats weighing 200-250 g, kept in a vivarium with free access to food (standard pelleted feed) and water, and with natural alternation of day and night. […]\nThe animals were divided into 4 groups: sham-operated, a group of animals with hemorrhagic insult, animals with hemorrhagic insult which received dimebon intraperitoneally at a dose of 0.1 mg/kg, and animals with hemorrhagic insult which received nimodipine intraperitoneally at a dose of 0.1 mg/kg. The effects of the substances were recorded 24 hours, and 3, 7 and 14 days after operation. […]\nThe neurological deficit in the animals was determined using the McGraw Stroke index as modified by I. V. Gannushkina (Functional angioarchitectonics of the brain (1977) (Moscow, Meditsina) p. 224). The severity of the condition was determined from the sum of the corresponding scores. […]", "note": "For at least one compound, name, drawing or mass did not settle the structure.", "data": [{"smiles": "COCCOC(=O)C1=C(C)NC(C)=C(C(=O)OC(C)C)C1c1cccc([N+](=O)[O-])c1", "note": "(stereo not shown) [nimodipine, reference compound]", "values": [{"measurement": "Effect on number of animals with pareses after hemorrhagic insult, in words", "value": "had a similar effect"}]}]}
